Some results were stated once for a whole list of compounds, not compound by compound. At least one compound was matched to its structure with a doubt left.
Tested on: cardiac stem cells
Test: RNA expression analysis (real-time RT-PCR) of EMT and pluripotency markers after 7 days with TGF-β inhibitors
Assay type: cell-based, rat
Details: CHF cardiac stem cells
Description: Total RNA was extracted from the cardiac stem cells using PureLink RNA Mini Kit (Life Technologies) according to the manufacturer's protocol. RNA was then quantified with a Quanti-iT RiboGreen RNA Assay Kit and assessed using a BioTek Synergy HT Microplate Reader (excitation/emission 480/520 nm). Total RNA (200 ng) was reverse-transcribed with a QuantiTect Reverse Transcription kit (Qiagen). Real-time RT-PCR was conducted using Rower SYBR Green Master Mix (Applied Biosystems) on a StepOnePlus Real-time PCR System (Applied Biosystems). Specific primers were synthesized by Life Technologies. CYPA was used as a reference gene. Data analysis was performed on StepOne software version 2.1 (Applied Biosystems) using the comparative Ct (AACt) quantitation method.
To determine the effect of inhibition of TGF-β signaling in cardiac stem cells on markers of epithelial/endothelial to mesenchymal transition (i.e., EMT markers) and pluripotency markers the following experiments were performed. Cardiac stem cells were isolated from sham and CHF heart tissue as described in Example 1 above. Cardiac stem cells from CHF and sham animals were treated in culture with TGF-β inhibitors SB431542 or SIS3 for 7 days and subsequently assessed for EMT and pluripotency expression by RNA expression analysis and western blotting using the techniques described above in Example 1.

## NC(=O)c1ccc(-c2nc(-c3ccc4c(c3)OCO4)c(-c3ccccn3)[nH]2)cc1 [SB431542]
  SMA reduction (gene expression): > 10 fold

## COc1cc2c(cc1OC)CN(C(=O)/C=C/c1c(-c3ccccc3)n(C)c3ncccc13)CC2 [SIS3]
  SMA reduction (gene expression): > 10 fold
